Data reported in patent US9011915B2, “Conveniently implantable sustained release drug compositions” (Ramscor, Inc., priority 2004, dated 2015).
At least one structure is not confirmed: it was looked up by name or label, or the drawing left a doubt.

Key:
[1] = 3:1 dexamethasone:ciprofloxacin in benzyl benzoate
[2] = cited from earlier work

SMILES | duration of release [1] | therapeutic vitreal concentrations [2]
C[C@@H]1C[C@H]2[C@@H]3CCC4=CC(=O)C=C[C@]4(C)[C@@]3(F)[C@@H](O)C[C@]2(C)[C@@]1(O)C(=O)CO [dexamethasone] | about sixty | 
CC1(C)O[C@@H]2C[C@H]3[C@@H]4CCC5=CC(=O)C=C[C@]5(C)[C@@]4(F)[C@@H](O)C[C@]3(C)[C@]2(C(=O)CO)O1 [TA, triamcinolone acetonide] |  | ≤ 1.0 µg/mL
